Experimental findings from PubChem BioAssay AID1347426 (Functional Genomics Laboratory (NCATS/FGL), 2020) are described below.

The campaign covered roughly 31,000 sequences. About 1,400 (4.5%) were called active.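 How the source made its calls: active means median seed-adjusted z-score above 1 or below -1; inactive means the rest.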 The list shows a part of the results.

This test is described as follows: Novel Modifiers of Survival Motor Neuron (SMN) Protein: Gene Identification via Genome-wide siRNA Screen.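 Further: luminescence tracks full-length SMN protein made from the SMN2 reporter.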 As to conditions: HEK293T SMN2-luciferase reporter, siRNA knockdown, 72 h; actives lie on both sides. The gist of the method:
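Luciferase signal, proportional to full-length SMN made from an SMN2 cDNA reporter in stable HEK293T cells, was read 72 h after siRNA reverse transfection. Values were expressed as MAD scores after non-targeting-control normalization and log10 conversion; seed analysis flagged off-targets.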
A general note: Reporter assays use an easily measured gene product as a stand-in for the process of interest.
As to GACUUGACAGGGAACGGAATT against MICA, the median seed-adjusted z-score is inactive: -0.0635.

On to GCAGAUUAAUUCCAACCAATT against IRF1, for which the median seed-adjusted z-score was inactive: 0.831.

As for GCAGCGAUGUACAAUCCCATT against OPN5, the median seed-adjusted z-score was inactive: 0.483.

For the sequence GCUUCUAAGGAGUACUUAATT against GZF1, the median seed-adjusted z-score is inactive: 0.286.

Turning to GGAUUCUUCUCUAAUACUUTT against MTM1, the median seed-adjusted z-score was inactive: 0.406.

As for GCUUGCCCUUAAUCAAAGATT against CYP2J2, the median seed-adjusted z-score was inactive: 0.00659.

For the sequence GAACGAGUCCUUUACUACATT against GFM1, the median seed-adjusted z-score was inactive: -0.0641.

As to GCAUUAUGAUUACAAUAGUTT against HTR1F, the median seed-adjusted z-score was inactive: -0.127.

On to CUCCUUCCCGGAUGAUUUATT against KLF17, for which the median seed-adjusted z-score is inactive: -0.131.

With GACAUUUCUUGCAUGUUAATT against SPO11, the median seed-adjusted z-score is inactive: 0.475.

Regarding GGCUCUACCAGUGUACUAATT against PAPPA, the median seed-adjusted z-score was inactive: -0.0169.

With CAACGAGUUUGGGACUGUUTT against PPM2C, the median seed-adjusted z-score was inactive: 0.518.

Turning to GCUGUCUCCUGAACAGGGATT against TRAPPC4, the median seed-adjusted z-score is inactive: 0.

Turning to CCUCAUUGUUUCGAAAUCATT against PRKD1, the median seed-adjusted z-score was inactive: -0.323.

For GGAUGGAAAUCAAGUUCGATT against NSUN4, the median seed-adjusted z-score was inactive: -0.491.

Regarding GAAGGUCCUCUGUUACUAUTT against SMARCAD1, the median seed-adjusted z-score is inactive: -0.198.

On to AGUCUGUUGGUGCACAAAATT against MDM2, for which the median seed-adjusted z-score is inactive: 0.258.

As for GAGUGGAAGUUGACCUUGUTT against RNF215, the median seed-adjusted z-score is inactive: -0.889.

For the sequence CCACCUUCAAUAUCGAGUUTT against DRD3, the median seed-adjusted z-score was inactive: 0.0447.

On to AGAGAGUUGUUAAUGAGGUTT against DUS2L, for which the median seed-adjusted z-score is inactive: -0.705.

For CAUUCGAUUCAGAUCAAAATT against LAMA3, the median seed-adjusted z-score is inactive: 0.534.

Turning to GGCAUUGCAGCAUCUCAAATT against GCKR, the median seed-adjusted z-score is inactive: 0.454.

Take GGGCUAUGACUAUAGCUAUTT against TYR: the median seed-adjusted z-score is inactive: 0.131.

Take CCCAGAUCGUGACCCAGUATT against GIPR: the median seed-adjusted z-score is inactive: 0.475.

Regarding GGAUCCGGCUAAAGAAAUATT against IMPDH2, the median seed-adjusted z-score is inactive: 0.119.

CCCUGAUGGUAAUUGCGUUTT against LRP1B: the median seed-adjusted z-score was inactive: -0.0589.

Regarding UGAUGAAGGUUGCACUCCATT against TAF6L, the median seed-adjusted z-score is inactive: 0.

Consider GCUGAGGACUUUAAUAUCUTT against GPR175, for which the median seed-adjusted z-score is inactive: 0.245.

On to CAUCAAUUCUUAGUGCAAATT against SERPINB10, for which the median seed-adjusted z-score was inactive: 0.00387.

Regarding GGAAGACCUACUUUACCGATT against FREQ, the median seed-adjusted z-score was inactive: -0.353.

Consider GGACUCAUGCAUCAUGAAATT against GPR37L1, for which the median seed-adjusted z-score is inactive: -0.0348.

For the sequence CAACUAAUAGAAUAUGGAATT against ATG4C, the median seed-adjusted z-score is inactive: -0.414.

For GAGUGCACGUGAUAGAGCATT against TBX22, the median seed-adjusted z-score was inactive: 0.0269.

CCUCUAACCUUAGAUGAAATT against GTF2E2: the median seed-adjusted z-score is active: -1.32.

Consider GUAAGCAUUUUAAUUCCAATT against CLCA3, for which the median seed-adjusted z-score is inactive: 0.424.

With GGUGAUGAAAGAAUUGAAATT against PAK2, the median seed-adjusted z-score is inactive: 0.122.

As to AGAUGAUCGCUGAGUUCAATT against TNNC2, the median seed-adjusted z-score is inactive: -0.773.

Take UGAUGAUCAUCACUGAGUATT against EPHA2: the median seed-adjusted z-score was inactive: 0.0948.

With GCACUUGACAAUGAUCAAATT against S1PR3, the median seed-adjusted z-score is inactive: -0.0931.

Consider CGUGAGUAGCGGUGAUGUATT against AAK1, for which the median seed-adjusted z-score is inactive: 0.27.

In the case of GGUGCUACAUCAACUCAGATT against CNKSR3, the median seed-adjusted z-score is inactive: 0.

Regarding GGAUGACUCCAGAUUCUAUTT against PIGA, the median seed-adjusted z-score is inactive: -0.0514.

For CGCCUGGUGGUGUACGUUUTT against ATG4D, the median seed-adjusted z-score is inactive: -0.216.

As for CCCACAACAUCAUCCAAGATT against CLDN4, the median seed-adjusted z-score is inactive: -0.0241.

Turning to GAGUUGAAAAUGACAAUGATT against CLSTN1, the median seed-adjusted z-score was inactive: 0.0811.

As for GUCUUCUCCUUUUACCUCATT against NAPSA, the median seed-adjusted z-score is inactive: -0.336.

Take GCUCAGGACUGUUGCCUCATT against CCL21: the median seed-adjusted z-score is inactive: -0.227.

Regarding AGAAAGCUUUGGGCAAAUATT against EEF1B2, the median seed-adjusted z-score is inactive: 0.388.

GCCUGAUACAAAAUCAACATT against TRPC5: the median seed-adjusted z-score is active: -1.14.

Take CCACCUCAGCAUUACCGUUTT against RUNX1T1: the median seed-adjusted z-score was inactive: 0.181.

Consider GCACAGAGGACAUACGGAUTT against BSPRY, for which the median seed-adjusted z-score is inactive: -0.399.

Turning to GACUAUAAGCUGCGAAUUATT against MFN2, the median seed-adjusted z-score was inactive: -0.0968.

Take UCAUCUUCGUUAGUGCAGATT against NXN: the median seed-adjusted z-score was inactive: 0.175.

With CCCUCAAGGUACAAACAUUTT against POLD1, the median seed-adjusted z-score is inactive: -0.715.

Turning to CCCUUUCAUUUGCGACUGUTT against SLIT1, the median seed-adjusted z-score was inactive: 0.12.

In the case of GCACCUAUCUUGACCUGCUTT against CTSC, the median seed-adjusted z-score is inactive: 0.

Consider CCACCCUAGUUAGACAUCATT against ZNF419, for which the median seed-adjusted z-score was inactive: 0.0405.

Take AGUUCUACAUGCCGGAUGATT against GGTLC1: the median seed-adjusted z-score was inactive: -0.298.

As to CCCUAUGAGUGUCACGAUUTT against ZNF135, the median seed-adjusted z-score was inactive: 0.038.

Turning to GGAUCUCCCUACUACGAUATT against RND1, the median seed-adjusted z-score is inactive: -0.393.

GGAGAACACGAGGCAGGAATT against ZFYVE19: the median seed-adjusted z-score was inactive: 0.0704.

Regarding GCUACAACUGGAUAAGGAATT against FTSJ1, the median seed-adjusted z-score was inactive: 0.0774.

As to CUUUAAUUAUGACCCACAATT against ZNF566, the median seed-adjusted z-score was inactive: 0.0702.

Turning to GCUAGAUGUUUACAACGGATT against ACPP, the median seed-adjusted z-score is inactive: 0.311.

Regarding GAUCAACGGUUCACGGGAATT against PNLIPRP3, the median seed-adjusted z-score was inactive: -0.287.

For CCUUGAUAGUUCAAUAUGATT against CLGN, the median seed-adjusted z-score was inactive: 0.18.

On to CACCUAUCCUCAAAACUUATT against ZNF117, for which the median seed-adjusted z-score was inactive: 0.616.

Turning to GGAAGAUCCAAGAUUGAAATT against NEDD4, the median seed-adjusted z-score is inactive: 0.454.
